From publication PMC11969748 come the findings set out here.

Amino acid sequences for entries named in this document (tags omitted).
UniProt O43474: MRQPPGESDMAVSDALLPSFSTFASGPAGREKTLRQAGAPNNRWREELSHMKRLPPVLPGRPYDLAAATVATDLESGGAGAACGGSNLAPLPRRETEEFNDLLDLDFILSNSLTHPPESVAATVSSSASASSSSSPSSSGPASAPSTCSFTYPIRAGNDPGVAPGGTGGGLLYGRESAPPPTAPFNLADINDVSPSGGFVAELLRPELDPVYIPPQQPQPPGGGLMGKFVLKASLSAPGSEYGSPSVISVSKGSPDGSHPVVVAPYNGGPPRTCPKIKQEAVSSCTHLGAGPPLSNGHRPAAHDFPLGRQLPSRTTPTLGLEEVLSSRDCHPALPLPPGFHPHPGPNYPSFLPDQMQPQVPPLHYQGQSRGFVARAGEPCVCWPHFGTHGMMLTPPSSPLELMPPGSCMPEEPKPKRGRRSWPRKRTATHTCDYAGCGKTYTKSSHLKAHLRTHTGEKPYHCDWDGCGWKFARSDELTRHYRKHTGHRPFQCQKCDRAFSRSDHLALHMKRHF

These are yes or no findings as the source states them, for the method shown. Binding seen in cells or lysates may run through a third protein. Some results given as binding are weak or reduced against the parent protein; the word gives no strength. Where a sequence is shown, tags or fusion partners need not be part of it.

For test [1], the target named is T1, HA-tagged TRAF7 (TNF Receptor-Associated Factor 7) (UniProt Q6Q0C0).
T1 sequence: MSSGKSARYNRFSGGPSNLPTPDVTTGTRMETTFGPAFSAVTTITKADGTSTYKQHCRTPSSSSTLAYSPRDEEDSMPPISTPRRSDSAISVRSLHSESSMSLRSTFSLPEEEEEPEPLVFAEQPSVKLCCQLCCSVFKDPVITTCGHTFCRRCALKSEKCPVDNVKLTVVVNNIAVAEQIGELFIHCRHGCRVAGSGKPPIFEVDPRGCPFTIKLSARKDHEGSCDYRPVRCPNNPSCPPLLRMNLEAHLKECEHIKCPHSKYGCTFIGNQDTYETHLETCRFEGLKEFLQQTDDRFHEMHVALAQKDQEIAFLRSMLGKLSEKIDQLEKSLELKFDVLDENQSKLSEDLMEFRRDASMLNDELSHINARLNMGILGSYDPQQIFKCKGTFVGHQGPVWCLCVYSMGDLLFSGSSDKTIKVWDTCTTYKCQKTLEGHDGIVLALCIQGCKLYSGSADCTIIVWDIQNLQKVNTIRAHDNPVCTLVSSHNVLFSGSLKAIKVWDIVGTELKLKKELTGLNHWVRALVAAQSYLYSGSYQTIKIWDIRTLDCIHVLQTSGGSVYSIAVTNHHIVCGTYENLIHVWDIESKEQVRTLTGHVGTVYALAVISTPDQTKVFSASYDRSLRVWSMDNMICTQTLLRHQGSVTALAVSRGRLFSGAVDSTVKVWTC
Nature of the test: co-IP; Protein A/G magnetic beads loaded with Flag, HA or normal IgG antibodies; binding buffer 50 mM Tris, 150 mM NaCl, 0.1%-0.5% Triton X-100 or Tween 20, pH 7.5; lysate of U251 cells co-expressing Flag-KLF4 and HA-TRAF7 incubated 10 min at room temperature; both orientations.

Test [2] addresses Flag-tagged KLF4 (Krüppel-Like Factor 4) (UniProt O43474). The test is described as above.

Take “Flag-tagged KLF4 (Krüppel-Like Factor 4) (from UniProt O43474 1-513)”: the binding entry in test [1] is on record as “binds”.

B1: HA-tagged TRAF7 (TNF Receptor-Associated Factor 7) (protein, UniProt Q6Q0C0 1-670)
chain: T1 sequence
In the case of B1, the binding entry in test [2] is listed as “binds”.
